Results: publication PMC4305328
Results are given in words; binding and its absence hold for the method and conditions named. Binding seen in cells or lysates may run through a third protein. Some binding calls cover weakened binding; strength is not graded here.

By UniProt entry, the sequences of proteins in these tests, tags left out.
UniProt Q5A7S7: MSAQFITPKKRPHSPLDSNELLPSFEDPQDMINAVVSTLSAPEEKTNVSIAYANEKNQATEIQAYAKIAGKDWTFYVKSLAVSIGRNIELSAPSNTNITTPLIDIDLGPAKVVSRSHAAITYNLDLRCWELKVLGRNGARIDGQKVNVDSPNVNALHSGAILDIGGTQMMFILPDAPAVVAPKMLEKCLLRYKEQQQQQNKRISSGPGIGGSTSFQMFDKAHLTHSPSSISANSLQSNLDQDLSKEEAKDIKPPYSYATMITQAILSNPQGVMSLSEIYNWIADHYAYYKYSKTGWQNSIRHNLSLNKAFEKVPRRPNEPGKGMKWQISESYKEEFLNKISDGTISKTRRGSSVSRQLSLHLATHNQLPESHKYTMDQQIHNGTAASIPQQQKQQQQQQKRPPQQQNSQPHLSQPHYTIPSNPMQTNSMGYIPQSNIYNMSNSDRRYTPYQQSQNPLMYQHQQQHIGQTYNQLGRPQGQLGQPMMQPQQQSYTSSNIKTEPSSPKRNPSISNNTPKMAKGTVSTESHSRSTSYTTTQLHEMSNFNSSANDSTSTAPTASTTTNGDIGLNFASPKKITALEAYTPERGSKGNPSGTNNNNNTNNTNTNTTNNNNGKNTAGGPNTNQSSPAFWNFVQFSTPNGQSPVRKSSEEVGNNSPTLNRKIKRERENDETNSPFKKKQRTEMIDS
UniProt Q5ALL8: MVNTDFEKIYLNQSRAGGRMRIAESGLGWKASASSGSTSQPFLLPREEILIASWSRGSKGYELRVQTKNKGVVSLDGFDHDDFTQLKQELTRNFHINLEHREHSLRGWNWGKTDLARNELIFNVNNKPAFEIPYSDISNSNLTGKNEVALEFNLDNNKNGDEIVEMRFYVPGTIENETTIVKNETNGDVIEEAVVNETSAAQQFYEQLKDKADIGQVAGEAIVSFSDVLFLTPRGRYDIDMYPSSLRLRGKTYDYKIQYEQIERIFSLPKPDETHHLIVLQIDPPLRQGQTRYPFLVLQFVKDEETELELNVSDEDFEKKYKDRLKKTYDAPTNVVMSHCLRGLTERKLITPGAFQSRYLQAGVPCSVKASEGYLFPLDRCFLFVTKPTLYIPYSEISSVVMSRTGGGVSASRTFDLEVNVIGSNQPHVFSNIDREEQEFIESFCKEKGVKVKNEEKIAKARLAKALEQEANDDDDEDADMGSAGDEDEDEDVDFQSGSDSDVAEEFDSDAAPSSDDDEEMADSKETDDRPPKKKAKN

Target: Fkh2-YFP (C. albicans) (UniProt Q5A7S7)
Assay: co-IP; Fkh2-YFP/GFP precipitated with anti-GFP antibody on protein-G Dynabeads from 2 mg total protein, 40 min post hyphal induction; washed twice with lysis buffer containing 150 mM NaCl; anti-HA blot; control strain expressing only the HA-tagged protein

Q: Which binding does the source give for Pob3-HA (from UniProt Q5ALL8 1-538) here?
A: binds
